Measurements as given in PMC10462657.
No constants are given. Whether binding was seen depends on the method and setting. Binding seen in cells or lysates may run through a third protein. Binding can be weak; no strength is given.

Chains of the proteins cited; added tags and fusions are not shown. Lines headed by an entry give the natural chain unless they say otherwise; changes in a name come on top. Residues count along the entry.
UniProt Q9BXK5: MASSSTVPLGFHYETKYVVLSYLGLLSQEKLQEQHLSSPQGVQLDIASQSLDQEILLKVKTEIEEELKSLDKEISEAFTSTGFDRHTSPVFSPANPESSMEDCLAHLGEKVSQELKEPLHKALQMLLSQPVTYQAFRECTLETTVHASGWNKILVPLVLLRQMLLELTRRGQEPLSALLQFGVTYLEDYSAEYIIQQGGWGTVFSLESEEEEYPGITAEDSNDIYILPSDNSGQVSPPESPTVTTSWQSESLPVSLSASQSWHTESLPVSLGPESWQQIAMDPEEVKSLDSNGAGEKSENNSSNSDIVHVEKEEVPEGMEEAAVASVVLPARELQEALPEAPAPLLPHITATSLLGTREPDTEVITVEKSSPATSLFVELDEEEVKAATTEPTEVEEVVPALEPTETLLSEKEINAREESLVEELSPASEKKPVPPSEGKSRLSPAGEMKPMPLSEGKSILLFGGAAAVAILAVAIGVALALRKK
UniProt P38646, residues 47-679: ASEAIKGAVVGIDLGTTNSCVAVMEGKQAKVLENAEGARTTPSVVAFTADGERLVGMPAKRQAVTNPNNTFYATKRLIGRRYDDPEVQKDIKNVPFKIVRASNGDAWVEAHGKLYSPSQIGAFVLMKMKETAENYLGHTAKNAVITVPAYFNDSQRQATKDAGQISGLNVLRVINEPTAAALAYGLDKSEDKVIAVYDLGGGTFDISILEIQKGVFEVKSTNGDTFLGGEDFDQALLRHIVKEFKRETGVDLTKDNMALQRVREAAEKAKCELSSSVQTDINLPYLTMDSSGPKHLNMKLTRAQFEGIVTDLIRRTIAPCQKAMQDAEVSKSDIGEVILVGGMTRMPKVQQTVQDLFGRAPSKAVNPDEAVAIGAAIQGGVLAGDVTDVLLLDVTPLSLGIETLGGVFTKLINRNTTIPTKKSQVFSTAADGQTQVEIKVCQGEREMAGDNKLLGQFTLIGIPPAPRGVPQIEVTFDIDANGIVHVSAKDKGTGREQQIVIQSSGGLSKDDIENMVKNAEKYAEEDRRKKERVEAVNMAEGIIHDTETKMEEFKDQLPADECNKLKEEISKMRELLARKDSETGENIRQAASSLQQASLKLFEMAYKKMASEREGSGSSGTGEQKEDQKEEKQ

Biological target: GST-BCL-RAMBO protein (human) (UniProt Q9BXK5)
Experiment: pull-down; GST or GST-BCL-RAMBO protein (25 µg) with lysate (500 µg protein) of 293T cells expressing FLAG-GRP75 and Glutathione Sepharose 4B beads, 4 °C overnight; Western blotting; only the target purified

binding: binds
Substance: FLAG-GRP75, full-length GRP75 (1–679) (from UniProt P38646 47-679)
